The target of assay [1] is AP_SAP11-like_PM19 fused to the Gal4 binding domain ('Candidatus Phytoplasma mali' strain PM19). Kind of assay: two-hybrid.
Assay [2] concerns the target AP_SAP11-like_PM19^Δ40-56 fused to the Gal4 binding domain ('Candidatus Phytoplasma mali' strain PM19). The experiment in a line: two-hybrid.

No constants are given. Whether binding was seen depends on the method and setting. A result given as binding can be weak or reduced; the word gives no strength. Tags and fused reporters may be left off the sequences shown.

B1: AtTCP1 fused to the Gal4 activation domain (protein, UniProt Q9FYG7 1-359)
chain: MSSSTNDYNDGNNNGVYPLSLYLSSLSGHQDIIHNPYNHQLKASPGHMVSAVPESLIDYMAFKSNNVVNQQGFEFPEVSKEIKKVVKKDRHSKIQTAQGIRDRRVRLSIGIARQFFDLQDMLGFDKASKTLDWLLKKSRKAIKEVVQAKNLNNDDEDFGNIGGDVEQEEEKEEDDNGDKSFVYGLSPGYGEEEVVCEATKAGIRKKKSELRNISSKGLGAKARGKAKERTKEMMAYDNPETASDITQSEIMDPFKRSIVFNEGEDMTHLFYKEPIEEFDNQESILTNMTLPTKMGQSYNQNNGILMLVDQSSSSNYNTFLPQNLDYSYDQNPFHDQTLYVVTDKNFPKGKVWIQDSFVN
As to B1, the binding entry in assay [1] and in assay [2] was “binds” in each case.

B2: AtTCP16 fused to the Gal4 activation domain (protein, UniProt Q9M1U4 1-165)
chain: MDSKNGINNSQKARRTPKDRHLKIGGRDRRIRIPPSVAPQLFRLTKELGFKTDGETVSWLLQNAEPAIFAATGHGVTTTSNEDIQPNRNFPSYTFNGDNISNNVFPCTVVNTGHRQMVFPVSTMTDHAPSTNYSTISDNYNSTFNGNATASDTTSAATTTATTTV
Consider B2, for which, in assay [1], the binding result is “no binding”.

B3: AtTCP4 fused to the Gal4 activation domain (protein, UniProt Q8LPR5 1-420)
chain: MSDDQFHHPPPPSSMRHRSTSDAADGGCGEIVEVQGGHIVRSTGRKDRHSKVCTAKGPRDRRVRLSAHTAIQFYDVQDRLGFDRPSKAVDWLIKKAKTSIDELAELPPWNPADAIRLAAANAKPRRTTAKTQISPSPPPPQQQQQQQQLQFGVGFNGGGAEHPSNNESSFLPPSMDSDSIADTIKSFFPVIGSSTEAPSNHNLMHNYHHQHPPDLLSRTNSQNQDLRLSLQSFPDGPPSLLHHQHHHHTSASASEPTLFYGQSNPLGFDTSSWEQQSSEFGRIQRLVAWNSGGGGGATDTGNGGGFLFAPPTPSTTSFQPVLGQSQQLYSQRGPLQSSYSPMIRAWFDPHHHHQSISTDDLNHHHHLPPPVHQSAIPGIGFASGEFSSGFRIPARFQGQEEEQHDGLTHKPSSASSISRH
On to B3, for which the binding result in assay [1] is reported as “binds”; in assay [2], “no binding”.

B4: AtTCP17 fused to the Gal4 activation domain (protein, UniProt Q9LEZ9 1-242)
chain: MGIKKEDQKSSLSLLTQRWNNPRIVRVSRAFGGKDRHSKVCTVRGLRDRRIRLSVMTAIQVYDLQERLGLSQPSKVIDWLLEVAKNDVDLLPPLQFPPGFHQLNPNLTGLGESFPGVFDLGRTQREALDLEKRKWVNLDHVFDHIDHHNHFSNSIQSNKLYFPTITSSSSSYHYNLGHLQQSLLDQSGNVTVAFSNNYNNNNLNPPAAETMSSLFPTRYPSFLGGGQLQLFSSTSSQPDHIE
B4: the binding result in assay [1] and in assay [2] was “binds” in each case.

B5: AtTCP19 fused to the Gal4 activation domain (protein, UniProt Q9LT89 1-293)
chain: MESNHEGNAIQVIDQVTTMTHLSDPNPKTKPGMMLMKQEDGYLQPVKTKPAPKRPTSKDRHTKVEGRGRRIRMPAGCAARVFQLTRELGHKSDGETIRWLLERAEPAIIEATGTGTVPAIAVSVNGTLKIPTSSPVLNDGGRDGDGDLIKKRRKRNCTSDFVDVNDSCHSSVTSGLAPITASNYGVNILNVNTQGFVPFWPMGMGTAFVTGGPDQMGQMWAIPTVATAPFLNVGARPVSSYVSNASDAEAEMETSGGGTTQPLRDFSLEIYDKRELQFLGGSGNSSPSSCHET
For B5, the binding entry in assay [1] is reported as “binds”; in assay [2] it was “no binding”.

B6: AtTCP2 fused to the Gal4 activation domain (protein, UniProt Q93V43 1-365)
chain: MIGDLMKNNNNGDVVDNEVNNRLSRWHHNSSRIIRVSRASGGKDRHSKVLTSKGPRDRRVRLSVSTALQFYDLQDRLGYDQPSKAVEWLIKAAEDSISELPSLNNTHFPTDDENHQNQTLTTVAANSLSKSACSSNSDTSKNSSGLSLSRSELRDKARERARERTAKETKERDHNHTSFTDLLNSGSDPVNSNRQWMASAPSSSPMEYFSSGLILGSGQQTHFPISTNSHPFSSISDHHHHHPHHQHQEFSFVPDHLISPAESNGGAFNLDFNMSTPSGAGAAVSAASGGGFSGFNRGTLQSNSTNQHQSFLANLQRFPTSESGGGPQFLFGALPAENHHHNHQFQLYYENGCRNSSEHKGKGKN
Turning to B6, the binding entry in assay [1] and in assay [2] was “binds” in each case.

B7: AtTCP18 fused to the Gal4 activation domain (protein, UniProt A1YKT1 1-433)
chain: MNNNIFSTTTTINDDYMLFPYNDHYSSQPLLPFSPSSSINDILIHSTSNTSNNHLDHHHQFQQPSPFSHFEFAPDCALLTSFHPENNGHDDNQTIPNDNHHPSLHFPLNNTIVEQPTEPSETINLIEDSQRISTSQDPKMKKAKKPSRTDRHSKIKTAKGTRDRRMRLSLDVAKELFGLQDMLGFDKASKTVEWLLTQAKPEIIKIATTLSHHGCFSSGDESHIRPVLGSMDTSSDLCELASMWTVDDRGSNTNTTETRGNKVDGRSMRGKRKRPEPRTPILKKLSKEERAKARERAKGRTMEKMMMKMKGRSQLVKVVEEDAHDHGEIIKNNNRSQVNRSSFEMTHCEDKIEELCKNDRFAVCNEFIMNKKDHISNESYDLVNYKPNSSFPVINHHRSQGAANSIEQHQFTDLHYSFGAKPRDLMHNYQNMY
Turning to B7, the binding entry in assay [1] and in assay [2] was “binds” in each case.

B8: AtTCP5 fused to the Gal4 activation domain (protein, UniProt Q9FME3 1-360)
chain: MRSGECDEEEIQAKQERDQNQNHQVNLNHMLQQQQPSSVSSSRQWTSAFRNPRIVRVSRTFGGKDRHSKVCTVRGLRDRRIRLSVPTAIQLYDLQDRLGLSQPSKVIDWLLEAAKDDVDKLPPLQFPHGFNQMYPNLIFGNSGFGESPSSTTSTTFPGTNLGFLENWDLGGSSRTRARLTDTTTTQRESFDLDKGKWIKNDENSNQDHQGFNTNHQQQFPLTNPYNNTSAYYNLGHLQQSLDQSGNNVTVAISNVAANNNNNLNLHPPSSSAGDGSQLFFGPTPPAMSSLFPTYPSFLGASHHHHVVDGAGHLQLFSSNSNTASQQHMMPGNTSLIRPFHHLMSSNHDTDHHSSDNESDS
B8: the binding result in assay [1] and in assay [2] was “binds” throughout.

B9: AtTCP24 fused to the Gal4 activation domain (protein, UniProt Q9C758 1-324)
chain: MEVDEDIELQKHQEQQSRKLQRFSEDNTGLMRNWNNPSSRIIRVSRASGGKDRHSKVLTSKGLRDRRIRLSVATAIQFYDLQDRLGFDQPSKAVEWLINAASDSITDLPLLNTNFDHLDQNQNQTKSACSSGTSESSLLSLSRTEIRGKARERARERTAKDRDKDLQNAHSSFTQLLTGGFDQQPSNRNWTGGSDCFNPVQLQIPNSSSQEPMNHPFSFVPDYNFGISSSSSAINGGYSSRGTLQSNSQSLFLNNNNNITQRSSISSSSSSSSPMDSQSISFFMATPPPLDHHNHQLPETFDGRLYLYYGEGNRSSDDKAKERR
For the molecule B9, the binding entry in assay [1] and in assay [2] was “binds” throughout.

B10: AtTCP12 fused to the Gal4 activation domain (protein, UniProt A0AQW4 1-356)
chain: MFPSLDTNGYDLFDPFIPHQTTMFPSFITHIQSPNSHHHYSSPSFPFSSDFLESFDESFLINQFLLQQQDVAANVVESPWKFCKKLELKKKNEKCVDGSTSQEVQWRRTVKKRDRHSKICTAQGPRDRRMRLSLQIARKFFDLQDMLGFDKASKTIEWLFSKSKTSIKQLKERVAASEGGGKDEHLQVDEKEKDETLKLRVSKRRTKTMESSFKTKESRERARKRARERTMAKMKMRLFETSETISDPHQETREIKITNGVQLLEKENKEQEWSNTNDVHMVEYQMDSVSIIEKFLGLTSDSSSSSIFGDSEECYTSLSSVRGMSTPREHNTTSIATVDEEKSPISSFSLYDYLCY
In the case of B10, the binding entry in assay [1] and in assay [2] was “binds” throughout.

B11: AtTCP13 fused to the Gal4 activation domain (protein, UniProt Q9S7W5 1-355)
chain: MNIVSWKDANDEVAGGATTRREREVKEDQEETEVRATSGKTVIKKQPTSISSSSSSWMKSKDPRIVRVSRAFGGKDRHSKVCTLRGLRDRRVRLSVPTAIQLYDLQERLGVDQPSKAVDWLLDAAKEEIDELPPLPISPENFSIFNHHQSFLNLGQRPGQDPTQLGFKINGCVQKSTTTSREENDREKGENDVVYTNNHHVGSYGTYHNLEHHHHHHQHLSLQADYHSHQLHSLVPFPSQILVCPMTTSPTTTTIQSLFPSSSSAGSGTMETLDPRQMVSHFQMPLMGNSSSSSSQNISTLYSLLHGSSSNNGGRDIDNRMSSVQFNRTNSTTTANMSRHLGSERCTSRGSDHHM
As for B11, the binding result in assay [1] and in assay [2] was “binds” throughout.

B12: AtTCP6 fused to the Gal4 activation domain (protein, UniProt Q9FLM6 1-243)
chain: MVMEPKKNQNLPSFLNPSRQNQDNDKKRKQTEVKGFDIVVGEKRKKKENEEEDQEIQILYEKEKKKPNKDRHLKVEGRGRRVRLPPLCAARIYQLTKELGHKSDGETLEWLLQHAEPSILSATVNGIKPTESVVSQPPLTADLMICHSVEEASRTQMEANGLWRNETGQTIGGFDLNYGIGFDFNGVPEIGFGDNQTPGLELRLSQVGVLNPQVFQQMGKEQFRVLHHHSHEDQQQSAEENGS
With B12, the binding result in assay [1] and in assay [2] was “binds” throughout.

B13: AtTCP10 fused to the Gal4 activation domain (protein, UniProt O82277 1-361)
chain: MGLKGYSVGEGGGEIVEVQGGHIIRATGRKDRHSKVFTSKGPRDRRVRLSAHTAIQFYDVQDRLGYDRPSKAVDWLIKKAKTAIDKLELGETTTTTTRQEPVNTKPESPTLVFQRENNDQTQFVAANLDPEDAMKTFFPATTTTNGGGGTNINFQNYPHQDDNNMVSRTTTPPPNLSQDLGLSLHPFQGNNNTVVVPETNNFTTTHFDTFGRISGWNHHDLTMTSSSSSEHQQQEQEERSNGGFMVNHHPHHHHHQPSMMTLLNSQQQQVFLGGQQQQQQRGTLQSSLFPHSFRSWDHHQTTSDHHHHQNQASSMFASSSQYGSHGMMMMQGLSFPNTTRLLHGEEATQPNSSSSPPNSHL
Regarding B13, the binding result is given as “binds” in assay [1] and “no binding” in assay [2].

B14: AtTCP3 fused to the Gal4 activation domain (protein, UniProt Q9MAH8 1-391)
chain: MAPDNDHFLDSPSPPLLEMRHHQSATENGGGCGEIVEVQGGHIVRSTGRKDRHSKVCTAKGPRDRRVRLSAPTAIQFYDVQDRLGFDRPSKAVDWLITKAKSAIDDLAQLPPWNPADTLRQHAAAAANAKPRKTKTLISPPPPQPEETEHHRIGEEEDNESSFLPASMDSDSIADTIKSFFPVASTQQSYHHQPPSRGNTQNQDLLRLSLQSFQNGPPFPNQTEPALFSGQSNNQLAFDSSTASWEQSHQSPEFGKIQRLVSWNNVGAAESAGSTGGFVFASPSSLHPVYSQSQLLSQRGPLQSINTPMIRAWFDPHHHHHHHQQSMTTDDLHHHHPYHIPPGIHQSAIPGIAFASSGEFSGFRIPARFQGEQEEHGGDNKPSSASSDSRH
As to B14, the values for the binding result in assay [1] and in assay [2] were “binds” and “no binding”, respectively.
